{"source": "patent US5763573A", "about": "“GTPase activating protein fragments” (Chiron Corporation, priority 1995, dated 1998)", "origin": "cited, not measured here", "tested_on": "GTP-binding regulatory proteins (G proteins)", "conditions": "Higashijima et al., 1988; cited from earlier work", "note": "Not every detail of the peptide structures is certain; ends, links or a residue may be inferred.", "data": [{"compound": "CC[C@H](C)[C@H](N)C(=O)N[C@@H](CC(N)=O)C(=O)N[C@@H](CC(C)C)C(=O)N[C@@H](CCCCN)C(=O)N[C@@H](C)C(=O)N[C@@H](CC(C)C)C(=O)N[C@@H](C)C(=O)N[C@@H](C)C(=O)N[C@@H](CC(C)C)C(=O)N[C@@H](C)C(=O)N[C@@H](CCCCN)C(=O)N[C@@H](CCCCN)C(=O)N[C@H](C(=O)N[C@@H](CC(C)C)C(N)=O)[C@@H](C)CC", "note": "[MP, INLKALAALAKKIL-NH2]", "values": [{"measurement": "dissociation of GDP from the G proteins", "result": "mediates the dissociation of GDP"}]}]}
